Source: paper PMC6702834
Results are given in words; binding and its absence hold for the method and conditions named. In cells and extracts the contact can be indirect. Some binding calls cover weakened binding; strength is not graded here. For some assays here: Where a sequence is shown, tags or fusion partners need not be part of it.

Sequences of proteins named here, by UniProt entry; tags and fusion partners are left off. Residues count along the entry.
UniProt P15311: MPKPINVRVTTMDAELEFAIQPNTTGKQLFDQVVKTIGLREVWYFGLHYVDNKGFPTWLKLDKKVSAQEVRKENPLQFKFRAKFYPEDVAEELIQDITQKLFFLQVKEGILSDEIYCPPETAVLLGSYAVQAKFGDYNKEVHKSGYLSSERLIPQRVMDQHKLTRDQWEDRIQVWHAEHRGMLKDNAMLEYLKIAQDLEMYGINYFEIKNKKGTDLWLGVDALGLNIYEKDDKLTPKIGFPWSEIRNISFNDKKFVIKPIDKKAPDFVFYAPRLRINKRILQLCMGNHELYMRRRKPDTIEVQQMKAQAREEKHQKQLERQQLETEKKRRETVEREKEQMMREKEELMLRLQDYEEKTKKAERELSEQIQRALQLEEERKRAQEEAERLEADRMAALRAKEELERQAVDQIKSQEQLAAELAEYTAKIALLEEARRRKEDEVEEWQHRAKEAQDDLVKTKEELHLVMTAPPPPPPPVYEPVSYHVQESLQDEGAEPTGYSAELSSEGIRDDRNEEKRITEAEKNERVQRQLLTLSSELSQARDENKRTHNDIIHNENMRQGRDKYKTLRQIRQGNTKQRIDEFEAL
UniProt P16144, residues 28-1822: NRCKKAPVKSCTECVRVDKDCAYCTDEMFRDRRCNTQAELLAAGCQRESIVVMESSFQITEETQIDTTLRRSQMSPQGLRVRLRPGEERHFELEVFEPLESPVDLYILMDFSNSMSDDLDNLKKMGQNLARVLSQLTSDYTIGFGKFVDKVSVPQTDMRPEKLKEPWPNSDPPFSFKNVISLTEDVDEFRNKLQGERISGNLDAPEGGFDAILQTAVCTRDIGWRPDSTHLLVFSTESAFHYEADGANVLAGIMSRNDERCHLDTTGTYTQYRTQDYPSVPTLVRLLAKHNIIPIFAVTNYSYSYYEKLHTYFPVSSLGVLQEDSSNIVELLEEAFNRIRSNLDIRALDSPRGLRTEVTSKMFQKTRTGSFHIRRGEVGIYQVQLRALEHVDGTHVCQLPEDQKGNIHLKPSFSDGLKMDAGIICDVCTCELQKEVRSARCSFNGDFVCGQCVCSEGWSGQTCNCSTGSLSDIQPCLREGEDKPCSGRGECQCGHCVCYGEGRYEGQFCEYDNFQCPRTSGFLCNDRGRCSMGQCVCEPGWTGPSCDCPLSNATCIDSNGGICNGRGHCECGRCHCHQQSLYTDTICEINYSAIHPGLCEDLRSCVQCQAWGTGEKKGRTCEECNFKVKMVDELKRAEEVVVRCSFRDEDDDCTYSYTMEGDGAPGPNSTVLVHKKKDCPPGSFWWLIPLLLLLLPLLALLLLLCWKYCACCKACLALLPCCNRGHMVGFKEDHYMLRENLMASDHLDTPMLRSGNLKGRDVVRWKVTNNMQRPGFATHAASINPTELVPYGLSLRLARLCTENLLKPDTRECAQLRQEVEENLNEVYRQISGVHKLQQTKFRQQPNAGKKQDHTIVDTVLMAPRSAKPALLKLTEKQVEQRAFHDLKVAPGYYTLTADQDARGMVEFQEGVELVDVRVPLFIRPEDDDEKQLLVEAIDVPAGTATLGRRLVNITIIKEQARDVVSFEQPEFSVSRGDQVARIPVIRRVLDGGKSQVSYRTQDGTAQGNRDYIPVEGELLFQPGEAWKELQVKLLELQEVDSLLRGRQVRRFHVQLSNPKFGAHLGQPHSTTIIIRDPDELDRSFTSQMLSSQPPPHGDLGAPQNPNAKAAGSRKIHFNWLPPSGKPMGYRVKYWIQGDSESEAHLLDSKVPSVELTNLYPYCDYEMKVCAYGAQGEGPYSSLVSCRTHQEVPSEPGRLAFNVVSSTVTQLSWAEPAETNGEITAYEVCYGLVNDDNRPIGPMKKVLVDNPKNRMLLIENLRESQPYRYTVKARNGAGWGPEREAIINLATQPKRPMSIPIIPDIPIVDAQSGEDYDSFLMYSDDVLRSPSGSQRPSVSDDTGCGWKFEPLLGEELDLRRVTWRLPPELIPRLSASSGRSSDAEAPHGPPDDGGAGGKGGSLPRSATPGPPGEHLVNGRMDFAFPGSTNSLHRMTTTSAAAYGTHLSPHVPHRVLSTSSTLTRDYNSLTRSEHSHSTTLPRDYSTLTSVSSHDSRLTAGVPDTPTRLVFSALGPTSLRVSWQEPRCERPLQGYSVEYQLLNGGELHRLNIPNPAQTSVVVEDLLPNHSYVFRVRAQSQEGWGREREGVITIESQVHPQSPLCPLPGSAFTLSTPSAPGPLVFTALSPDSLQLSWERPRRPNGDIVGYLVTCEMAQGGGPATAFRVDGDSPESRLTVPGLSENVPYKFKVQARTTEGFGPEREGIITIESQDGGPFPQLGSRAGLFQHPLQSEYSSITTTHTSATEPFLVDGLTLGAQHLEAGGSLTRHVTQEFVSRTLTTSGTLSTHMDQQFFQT
UniProt P54764, residues 20-986: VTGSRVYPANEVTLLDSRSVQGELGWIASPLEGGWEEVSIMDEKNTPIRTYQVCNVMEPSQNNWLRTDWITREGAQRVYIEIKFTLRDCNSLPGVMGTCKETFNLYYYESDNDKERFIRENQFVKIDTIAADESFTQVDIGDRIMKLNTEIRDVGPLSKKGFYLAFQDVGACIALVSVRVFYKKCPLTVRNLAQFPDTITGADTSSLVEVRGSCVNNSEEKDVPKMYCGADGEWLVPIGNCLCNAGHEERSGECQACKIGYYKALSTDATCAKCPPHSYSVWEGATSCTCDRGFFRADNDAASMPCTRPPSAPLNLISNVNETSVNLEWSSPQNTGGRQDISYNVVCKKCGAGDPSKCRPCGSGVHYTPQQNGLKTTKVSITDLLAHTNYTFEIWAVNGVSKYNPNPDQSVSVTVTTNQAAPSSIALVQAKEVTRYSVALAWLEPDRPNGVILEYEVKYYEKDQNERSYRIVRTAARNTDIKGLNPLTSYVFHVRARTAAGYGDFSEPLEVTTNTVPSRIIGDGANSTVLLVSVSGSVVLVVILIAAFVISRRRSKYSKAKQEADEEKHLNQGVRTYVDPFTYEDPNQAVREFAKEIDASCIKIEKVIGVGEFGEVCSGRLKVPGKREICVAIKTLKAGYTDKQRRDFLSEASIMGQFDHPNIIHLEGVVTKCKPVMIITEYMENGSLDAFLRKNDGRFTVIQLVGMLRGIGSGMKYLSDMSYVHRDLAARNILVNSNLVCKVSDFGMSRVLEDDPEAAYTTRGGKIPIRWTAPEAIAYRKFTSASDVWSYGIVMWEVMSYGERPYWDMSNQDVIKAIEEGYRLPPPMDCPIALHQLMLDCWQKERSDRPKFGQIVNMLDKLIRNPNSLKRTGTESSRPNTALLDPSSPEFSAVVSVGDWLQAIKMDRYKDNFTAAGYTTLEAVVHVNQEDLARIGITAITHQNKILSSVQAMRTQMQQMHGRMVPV
UniProt P61073: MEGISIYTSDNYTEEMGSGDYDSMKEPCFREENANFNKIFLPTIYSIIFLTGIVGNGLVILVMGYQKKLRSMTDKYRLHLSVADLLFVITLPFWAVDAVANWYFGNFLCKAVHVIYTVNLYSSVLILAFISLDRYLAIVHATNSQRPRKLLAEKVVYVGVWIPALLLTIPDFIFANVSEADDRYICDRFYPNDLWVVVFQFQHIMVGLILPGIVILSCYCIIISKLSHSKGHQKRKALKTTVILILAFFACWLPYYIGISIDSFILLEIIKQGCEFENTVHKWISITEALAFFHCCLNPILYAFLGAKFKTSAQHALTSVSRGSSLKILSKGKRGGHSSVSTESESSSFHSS

What was measured:
[1] = target: ezrin (human (endogenous in A818.4)) (UniProt P15311); assay: co-IP; endogenous proteins in cell lysates (A818.4; Figure 6(d) also Capan1; wt, CD44v6kd or Tspan8kd cells); 500 ug lysate, HEPES buffer, 1% Lubrol or 1% TritonX-100; antibody 1h 4°C, ProteinG-Sepharose 1h; Western blot
[2] = target: CD104 (human (endogenous in A818.4)) (UniProt P16144); assay: as above
[3] = target: EphA4 (human (endogenous in A818.4)) (UniProt P54764); assay: as above
[4] = target: CD184 (human (endogenous in A818.4)) (UniProt P61073); assay: as above
[5] = target: CD104 (human (endogenous in A818.4)) (UniProt P16144); assay: co-IP; endogenous proteins in TEX (exosome) lysates of A818.4 (wt, CD44v6kd or Tspan8kd); 100 ug lysate, HEPES buffer, 1% Lubrol or 1% TritonX-100; antibody 1h 4°C, ProteinG-Sepharose 1h; Western blot
[6] = target: T1, prostaglandin F2 receptor negative regulator (human (endogenous in A818.4)) (UniProt Q9P2B2); assay: as above
T1 sequence: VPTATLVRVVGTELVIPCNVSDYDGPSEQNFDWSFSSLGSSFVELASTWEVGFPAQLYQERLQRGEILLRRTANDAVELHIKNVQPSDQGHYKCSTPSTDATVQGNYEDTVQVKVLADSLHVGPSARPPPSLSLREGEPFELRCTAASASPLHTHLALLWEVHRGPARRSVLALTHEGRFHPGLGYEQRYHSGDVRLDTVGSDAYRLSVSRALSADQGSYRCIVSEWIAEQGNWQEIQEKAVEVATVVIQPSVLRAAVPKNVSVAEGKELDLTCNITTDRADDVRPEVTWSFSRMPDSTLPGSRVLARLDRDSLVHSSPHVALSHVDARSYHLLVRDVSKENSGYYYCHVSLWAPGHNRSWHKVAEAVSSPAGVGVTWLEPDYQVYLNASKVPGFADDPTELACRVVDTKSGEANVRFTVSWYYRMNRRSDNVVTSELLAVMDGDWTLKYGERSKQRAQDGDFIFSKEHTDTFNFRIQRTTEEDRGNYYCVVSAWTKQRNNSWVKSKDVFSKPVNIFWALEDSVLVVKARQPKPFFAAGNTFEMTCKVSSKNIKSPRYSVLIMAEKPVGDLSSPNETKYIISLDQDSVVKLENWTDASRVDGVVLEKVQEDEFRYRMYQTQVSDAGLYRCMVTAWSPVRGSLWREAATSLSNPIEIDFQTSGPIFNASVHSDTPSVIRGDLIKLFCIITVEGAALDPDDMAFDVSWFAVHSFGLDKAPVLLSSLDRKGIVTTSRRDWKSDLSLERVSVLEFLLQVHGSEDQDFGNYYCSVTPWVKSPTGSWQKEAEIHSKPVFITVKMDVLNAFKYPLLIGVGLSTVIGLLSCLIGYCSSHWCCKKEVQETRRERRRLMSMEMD

[7] = target: EphA4 (human (endogenous in A818.4)) (UniProt P54764); assay: as above
[8] = target: CD184 (human (endogenous in A818.4)) (UniProt P61073); assay: as above

Measured: binding

B1: Tspan8 (protein, UniProt P19075 1-237)
chain: MAGVSACIKYSMFTFNFLFWLCGILILALAIWVRVSNDSQAIFGSEDVGSSSYVAVDILIAVGAIIMILGFLGCCGAIKESRCMLLLFFIGLLLILLLQVATGILGAVFKSKSDRIVNETLYENTKLLSATGESEKQFQEAIIVFQEEFKCCGLVNGAADWGNNFQHYPELCACLDKQRPCQSYNGKQVYKETCISFIKDFLAKNLIIVIGISFGLAVIEILGLVFSMVLYCQIGNK
binds: all assays above
